The target of the test is Cyclophilin-D (mouse (endogenous in primary murine chondrocytes)) (UniProt Q99KR7). The test can be described thus: co-IP; Mito-IP: mitochondria isolated from primary murine chondrocytes (H2O2 300 uM 4 h, with or without luteolin 20 uM pretreatment), lysed in 20 mM Tris pH 7.4, 135 mM NaCl, 1.5 mM MgCl2, 1 mM EGTA, 10% glycerol, 1% Triton X-100; 400 ug lysate, anti-Cyp-D antibodies, protein G Sepharose, western ….

By UniProt entry, the sequences of proteins in these tests, tags left out. Residues count along the entry.
UniProt Q99KR7, residues 30-206: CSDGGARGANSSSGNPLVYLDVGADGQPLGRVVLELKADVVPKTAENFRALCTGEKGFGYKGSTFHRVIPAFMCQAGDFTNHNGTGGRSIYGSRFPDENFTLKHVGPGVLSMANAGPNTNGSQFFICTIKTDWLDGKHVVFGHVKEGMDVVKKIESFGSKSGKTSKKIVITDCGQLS
UniProt P02340: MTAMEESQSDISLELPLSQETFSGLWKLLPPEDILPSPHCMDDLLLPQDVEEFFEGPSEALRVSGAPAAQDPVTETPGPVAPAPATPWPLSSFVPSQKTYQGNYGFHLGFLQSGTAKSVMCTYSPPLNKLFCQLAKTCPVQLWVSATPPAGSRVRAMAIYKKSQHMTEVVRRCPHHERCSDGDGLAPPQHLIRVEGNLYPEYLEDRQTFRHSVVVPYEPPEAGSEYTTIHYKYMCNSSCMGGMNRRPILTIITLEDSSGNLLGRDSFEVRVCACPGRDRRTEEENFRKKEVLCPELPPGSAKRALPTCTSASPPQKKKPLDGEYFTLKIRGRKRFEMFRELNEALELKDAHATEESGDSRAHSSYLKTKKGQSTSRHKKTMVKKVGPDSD

Results are given in words; binding and its absence hold for the method and conditions named. In cells and extracts the contact can be indirect. Some binding calls cover weakened binding; strength is not graded here.

As to p53 (from UniProt P02340 1-390), the binding result is “binds”.

B1: adenine nucleotide translocator-1 (protein, UniProt P48962 1-298)
chain: MGDQALSFLKDFLAGGIAAAVSKTAVAPIERVKLLLQVQHASKQISAEKQYKGIIDCVVRIPKEQGFLSFWRGNLANVIRYFPTQALNFAFKDKYKQIFLGGVDRHKQFWRYFAGNLASGGAAGATSLCFVYPLDFARTRLAADVGKGSSQREFNGLGDCLTKIFKSDGLKGLYQGFSVSVQGIIIYRAAYFGVYDTAKGMLPDPKNVHIIVSWMIAQSVTAVAGLVSYPFDTVRRRMMMQSGRKGADIMYTGTLDCWRKIAKDEGANAFFKGAWSNVLRGMGGAFVLVLYDEIKKYV
Regarding B1, the binding result is “binds”.

The values are drawn from publication PMC8825676.
